Test results as given in paper PMC10558455.

Target: T1, GFP-Rab41 (human) (UniProt Q5JT25)
T1 sequence: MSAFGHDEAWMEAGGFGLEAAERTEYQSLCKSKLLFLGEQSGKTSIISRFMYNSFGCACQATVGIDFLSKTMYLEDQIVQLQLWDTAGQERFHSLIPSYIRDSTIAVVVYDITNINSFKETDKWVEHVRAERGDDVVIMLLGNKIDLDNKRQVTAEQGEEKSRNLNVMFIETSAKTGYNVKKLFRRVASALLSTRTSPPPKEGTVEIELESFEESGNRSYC
Assay: affinity purification with mass spectrometry; HEK293T expressing GFP or GFP-Rab41, treated with DMSO or LLOMe; GFP-Trap beads; n = 4; proteins found in the GFP-only condition removed

B1: endogenous TOM1L2 (protein, UniProt Q6ZVM7 1-507)
chain: MEFLLGNPFSTPVGQCLEKATDGSLQSEDWTLNMEICDIINETEEGPKDAIRALKKRLNGNRNYREVMLALTVLETCVKNCGHRFHILVANRDFIDSVLVKIISPKNNPPTIVQDKVLALIQAWADAFRSSPDLTGVVHIYEELKRKGVEFPMADLDALSPIHTPQRSVPEVDPAATMPRSQSQQRTSAGSYSSPPPAPYSAPQAPALSVTGPITANSEQIARLRSELDVVRGNTKVMSEMLTEMVPGQEDSSDLELLQELNRTCRAMQQRIVELISRVSNEEVTEELLHVNDDLNNVFLRYERFERYRSGRSVQNASNGVLNEVTEDNLIDLGPGSPAVVSPMVGNTAPPSSLSSQLAGLDLGTESVSGTLSSLQQCNPRDGFDMFAQTRGNSLAEQRKTVTYEDPQAVGGLASALDNRKQSSEGIPVAQPSVMDDIEVWLRTDLKGDDLEEGVTSEEFDKFLEERAKAAEMVPDLPSPPMEAPAPASNPSGRKKPERSEDALFAL
**Q.** For B1, which binding is on record?
**A.** The binding was “binds”.

B2: KCTD19 (protein, UniProt Q17RG1 1-926)
chain: MEESGMAHESAEDLFHFNVGGWHFSVPRSKLSQFPDSLLWKEASALTSSESQRLFIDRDGSTFRHVHYYLYTSKLSFSSCAELNLLYEQALGLQLMPLLQTLDNLKEGKHHLRVRPADLPVAERASLNYWRTWKCISKPSEFPIKSPAFTGLHDKAPLGLMDTPLLDTEEEVHYCFLPLDLVAKYPSLVTEDNLLWLAETVALIECECSEFRFIVNFLRSQKILLPDNFSNIDVLEAEVEILEIPALTEAVRWYRMNMGGCSPTTCSPLSPGKGARTASLESVKPLYTMALGLLVKYPDSALGQLRIESTLDGSRLYITGNGVLFQHVKNWLGTCRLPLTETISEVYELCAFLDKRDITYEPIKVALKTHLEPRTLAPMDVLNEWTAEITVYSPQQIIKVYVGSHWYATTLQTLLKYPELLSNPQRVYWITYGQTLLIHGDGQMFRHILNFLRLGKLFLPSEFKEWPLFCQEVEEYHIPSLSEALAQCEAYKSWTQEKESENEEAFSIRRLHVVTEGPGSLVEFSRDTKETTAYMPVDFEDCSDRTPWNKAKGNLVRSNQMDEAEQYTRPIQVSLCRNAKRAGNPSTYSHCRGLCTNPGHWGSHPESPPKKKCTTINLTQKSETKDPPATPMQKLISLVREWDMVNCKQWEFQPLTATRSSPLEEATLQLPLGSEAASQPSTSAAWKAHSTASEKDPGPQAGAGAGAKDKGPEPTFKPYLPPKRAGTLKDWSKQRTKERESPAPEQPLPEASEVDSLGVILKVTHPPVVGSDGFCMFFEDSIIYTTEMDNLRHTTPTASPQPQEVTFLSFSLSWEEMFYAQKCHCFLADIIMDSIRQKDPKAITAKVVSLANRLWTLHISPKQFVVDLLAITGFKDDRHTQERLYSWVELTLPFARKYGRCMDLLIQRGLSRSVSYSILGKYLQED
**Q.** For B2, which binding is on record?
**A.** The binding was “binds”.

B3: CLTA (protein, UniProt P09496 1-248)
chain: MAELDPFGAPAGAPGGPALGNGVAGAGEEDPAAAFLAQQESEIAGIENDEAFAILDGGAPGPQPHGEPPGGPDAVDGVMNGEYYQESNGPTDSYAAISQVDRLQSEPESIRKWREEQMERLEALDANSRKQEAEWKEKAIKELEEWYARQDEQLQKTKANNRVADEAFYKQPFADVIGYVTNINHPCYSLEQAAEEAFVNDIDESSPGTEWERVARLCDFNPKSSKQAKDVSRMRSVLISLKQAPLVH
**Q.** Which binding does the source give for B3 here?
**A.** The binding was “binds”.

B4: RNF185 (protein, UniProt Q96GF1 1-192)
chain: MASKGPSASASPENSSAGGPSGSSNGAGESGGQDSTFECNICLDTAKDAVISLCGHLFCWPCLHQWLETRPNRQVCPVCKAGISRDKVIPLYGRGSTGQQDPREKTPPRPQGQRPEPENRGGFQGFGFGDGGFQMSFGIGAFPFGIFATAFNINDGRPPPAVPGTPQYVDEQFLSRLFLFVALVIMFWLLIA
**Q.** With B4 as the binder, how does the binding read?
**A.** The binding was “binds”.

B5: endogenous VPS4A (identified by mass spectrometry) (protein, UniProt Q9UN37 1-437)
chain: MTTSTLQKAIDLVTKATEEDKAKNYEEALRLYQHAVEYFLHAIKYEAHSDKAKESIRAKCVQYLDRAEKLKDYLRSKEKHGKKPVKENQSEGKGSDSDSEGDNPEKKKLQEQLMGAVVMEKPNIRWNDVAGLEGAKEALKEAVILPIKFPHLFTGKRTPWRGILLFGPPGTGKSYLAKAVATEANNSTFFSVSSSDLMSKWLGESEKLVKNLFELARQHKPSIIFIDEVDSLCGSRNENESEAARRIKTEFLVQMQGVGNNNDGTLVLGATNIPWVLDSAIRRRFEKRIYIPLPEEAARAQMFRLHLGSTPHNLTDANIHELARKTEGYSGADISIIVRDSLMQPVRKVQSATHFKKVCGPSRTNPSMMIDDLLTPCSPGDPGAMEMTWMDVPGDKLLEPVVCMSDMLRSLATTRPTVNADDLLKVKKFSEDFGQES
**Q.** How did the binding turn out when B5 was run?
**A.** Its binding is “binds”.

No constants are given. Whether binding was seen depends on the method and setting. Binding seen in cells or lysates may run through a third protein. Here binding means that the protein was enriched with, or labelled near, the bait; the list need not be complete. Where a sequence is shown, tags or fusion partners need not be part of it.
